System: cancer tissues compared to normal tissues
Assay: Identification and relative quantitation of tumor associated peptides presented on the cell surface (HLA ligand isolation, label-free LC-MS presentation profiles)
Parameters: species or system human
Details: FIG. 1E-1J; only samples where the peptide was found presented

Point of comparison: “SEQ ID NO.: 243 (GLAEFQENV; listed as Homo sapiens)”, “number of cell lines on which the peptide was found to be presented” value 3. Against it:
- SEQ ID NO.: 235: peptide found in CLSPN (gene looked up) (SLLNQPKAV; listed as Homo sapiens) — higher, 13
- SEQ ID NO.: 84 (FLLEREQLL; listed as Homo sapiens) — the same, 3
- SEQ ID NO.: 2 (SVLEKEIYSI; listed as Homo sapiens) — higher, 4
